This test addresses C‐CBL (UniProt P22682). Put plainly: co-IP; co-immunoprecipitation from C2C12 cell lysate (IP lysis buffer, beads overnight at 4°C), western blot. On the technique in general: Immunoblotting shows a protein as a band on a membrane.

The chains behind the UniProt entries cited, without tags or fusion partners.
UniProt Q8C863: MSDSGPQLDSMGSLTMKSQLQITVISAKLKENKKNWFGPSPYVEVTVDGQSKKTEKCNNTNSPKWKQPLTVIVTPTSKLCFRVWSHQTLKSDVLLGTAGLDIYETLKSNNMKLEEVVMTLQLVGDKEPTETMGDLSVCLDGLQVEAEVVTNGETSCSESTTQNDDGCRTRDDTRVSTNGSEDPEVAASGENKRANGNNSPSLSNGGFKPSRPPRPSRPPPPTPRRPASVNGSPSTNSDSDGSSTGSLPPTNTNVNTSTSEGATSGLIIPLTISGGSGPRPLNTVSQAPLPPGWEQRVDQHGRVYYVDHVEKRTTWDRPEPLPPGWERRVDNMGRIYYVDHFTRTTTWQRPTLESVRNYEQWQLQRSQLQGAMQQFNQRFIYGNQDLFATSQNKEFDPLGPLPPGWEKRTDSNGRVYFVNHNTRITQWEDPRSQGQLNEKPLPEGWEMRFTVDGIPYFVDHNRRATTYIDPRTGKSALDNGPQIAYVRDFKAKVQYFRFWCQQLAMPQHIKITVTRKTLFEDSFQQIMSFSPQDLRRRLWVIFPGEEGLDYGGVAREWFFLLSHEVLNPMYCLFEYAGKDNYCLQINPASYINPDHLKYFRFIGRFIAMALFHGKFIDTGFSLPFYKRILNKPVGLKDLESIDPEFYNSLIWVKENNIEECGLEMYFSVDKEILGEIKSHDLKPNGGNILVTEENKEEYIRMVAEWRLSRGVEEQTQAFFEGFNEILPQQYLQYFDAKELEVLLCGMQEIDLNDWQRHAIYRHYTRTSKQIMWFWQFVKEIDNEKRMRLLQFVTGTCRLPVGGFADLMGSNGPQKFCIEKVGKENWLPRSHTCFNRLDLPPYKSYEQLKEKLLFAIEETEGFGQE

Consider 1 substance from PMC10995283.

Results are given in words; binding and its absence hold for the method and conditions named. Binding seen in cells or lysates may run through a third protein. Some results given as binding are weak or reduced against the parent protein; the word gives no strength.

For ITCH (from UniProt Q8C863 1-864), the binding entry is given as “binds”.
